At least one compound was matched to its structure with a doubt left.
System: β-Amyloid Peptide (Aβ) production from β-APP
Assay: Inhibition of Aβ production by β-APP-transfected H4 cells in culture, ELISA of conditioned medium
Format: cell-based
Settings: transfected H4 (human neuroglioma) cells expressing β-APP, approximately 16 hours incubation

Row | SMILES | Activity (based on each compound's IC50 values), Inhibition of β-Amyloid Peptide
1 | CC(C)N1C(=O)c2ccccc2C(NC(=O)[C@H](C)NC(=O)[C@@H](O)c2ccccc2)C(=O)N1C (stereo partly drawn) [Example 23, 2,3,4,5-Tetrahydro-5(R,S)-[[(2S)-2-[(2S)-(hydroxy)(phenyl)acetylamino]-1-oxopropyl]amino]-3-methyl-2-(1-methylethyl)-1H-2,3-benzodiazepin-1 4-dione] | 3+ nM
2 | C[C@H](NC(=O)Cc1cc(F)cc(F)c1)C(=O)NC1C(=O)N(C)N(C(=O)OC(C)(C)C)Cc2ccccc21 (some centres unmarked) [Example 24] | 3+ nM

— patent publication US6432944B1, “Benzodiazepinone β-amyloid inhibitors: arylacetamidoalanyl derivatives” (Bristol-Myers Squibb Company, priority 2000, dated 2002)
